No constants are given. Whether binding was seen depends on the method and setting. Binding seen in cells or lysates may run through a third protein. Some binding calls cover weakened binding; strength is not graded here. For part of these data: Sequences can lack the tags named with a protein.

For test [1], the target named is T1, U2A′ (endogenous) (D. melanogaster (endogenous in embryos)) (UniProt Q9V4Q8).
T1 sequence: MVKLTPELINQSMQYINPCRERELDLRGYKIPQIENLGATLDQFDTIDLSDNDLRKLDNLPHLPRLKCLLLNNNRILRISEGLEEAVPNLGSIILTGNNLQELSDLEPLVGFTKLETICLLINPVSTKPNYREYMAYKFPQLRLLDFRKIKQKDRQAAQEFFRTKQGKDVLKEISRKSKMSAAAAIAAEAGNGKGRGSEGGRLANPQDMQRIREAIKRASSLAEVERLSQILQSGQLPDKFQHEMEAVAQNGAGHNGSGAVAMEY
Nature of the test: co-IP; U2A′ and SPF45 immunoprecipitations from extracts (lysates) of wild-type and spf45^J23 mutant embryos, Western blots.

Test [2] concerns the target T2, GST::U2A′ fusion protein (D. melanogaster) (UniProt Q9V4Q8).
T2 sequence: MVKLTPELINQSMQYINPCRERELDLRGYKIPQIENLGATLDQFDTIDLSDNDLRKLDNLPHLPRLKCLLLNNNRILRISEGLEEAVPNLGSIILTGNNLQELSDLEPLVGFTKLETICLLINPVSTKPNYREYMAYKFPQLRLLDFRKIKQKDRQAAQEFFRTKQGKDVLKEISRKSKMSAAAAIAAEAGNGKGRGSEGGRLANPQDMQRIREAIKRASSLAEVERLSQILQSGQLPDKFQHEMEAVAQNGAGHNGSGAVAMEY
Nature of the test: condition: only extracts pretreated with RNase A and RNase T1; pull-down; as the GST pull-down, but extracts pretreated with RNase A and RNase T1; only the target purified.

In test [3] the target is T2, GST::U2A′ fusion protein (D. melanogaster). Nature of the test: pull-down; GST or GST-tagged protein on glutathione beads incubated overnight at 4 °C with 2.5 mg extract of 3- to 18-h-old embryos; Western blots with antibodies against SPF45 or SNF; only the target purified.

B1: SNF (endogenous) (protein, UniProt P43332 1-216)
chain: MEMLPNQTIYINNLNEKIKKEELKKSLYAIFSQFGQILDIVALKTLKMRGQAFVIFKEIGSASNALRTMQGFPFYDKPMQIAYSKSDSDIVAKIKGTFKERPKKVKPPKPAPGTDEKKDKKKKPSSAENSNPNAQTEQPPNQILFLTNLPEETNEMMLSMLFNQFPGFKEVRLVPNRHDIAFVEFTTELQSNAAKEALQGFKITPTHAMKITFAKK
Take B1: the binding result in test [1] is listed as “binds”; in test [2] it was “no binding”; in test [3], “binds”.

These data come from PMC1687153.
